Experimental data taken from patent publication US20170313978.
For at least one entry, the source does not settle the construct or the ends of the probe. For some of these results: Negatives hold for the conditions tested. For some of these results: Protein sequences can lack the tags named with them.

Amino acid sequences for entries named in this document (tags omitted). A change or cut given only in a name is not applied to a line headed by its entry.
UniProt Q01860: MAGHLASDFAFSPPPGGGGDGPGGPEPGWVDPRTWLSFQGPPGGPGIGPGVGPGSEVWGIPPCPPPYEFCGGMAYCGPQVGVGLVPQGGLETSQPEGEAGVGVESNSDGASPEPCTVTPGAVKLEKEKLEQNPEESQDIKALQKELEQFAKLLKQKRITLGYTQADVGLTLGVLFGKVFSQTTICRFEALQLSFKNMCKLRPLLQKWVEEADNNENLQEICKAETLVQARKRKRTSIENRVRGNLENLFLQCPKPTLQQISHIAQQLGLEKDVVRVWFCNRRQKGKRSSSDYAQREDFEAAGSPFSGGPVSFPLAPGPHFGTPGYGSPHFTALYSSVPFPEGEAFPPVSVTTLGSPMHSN
UniProt Q9H9S0, whole entry: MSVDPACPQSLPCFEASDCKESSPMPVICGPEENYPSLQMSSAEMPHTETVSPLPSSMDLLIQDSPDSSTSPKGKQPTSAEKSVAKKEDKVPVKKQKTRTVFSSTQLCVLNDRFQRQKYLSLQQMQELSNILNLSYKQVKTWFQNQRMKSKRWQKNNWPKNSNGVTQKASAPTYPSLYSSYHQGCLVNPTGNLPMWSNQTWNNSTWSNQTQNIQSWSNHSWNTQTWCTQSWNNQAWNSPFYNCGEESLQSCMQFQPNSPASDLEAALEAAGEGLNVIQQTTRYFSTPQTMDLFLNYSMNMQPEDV
UniProt P48431: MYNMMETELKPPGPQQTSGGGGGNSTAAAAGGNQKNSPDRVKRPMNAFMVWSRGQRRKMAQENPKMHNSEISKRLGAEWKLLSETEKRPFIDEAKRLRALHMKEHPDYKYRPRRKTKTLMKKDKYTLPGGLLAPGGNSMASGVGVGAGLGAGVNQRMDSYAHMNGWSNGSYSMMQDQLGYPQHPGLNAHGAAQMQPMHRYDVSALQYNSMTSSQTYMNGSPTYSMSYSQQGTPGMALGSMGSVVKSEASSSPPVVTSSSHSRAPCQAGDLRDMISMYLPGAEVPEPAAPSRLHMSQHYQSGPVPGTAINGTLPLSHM

Tests used:
Assay in all cases: activity in cells
[1] = target: OCT4 (UniProt Q01860); settings: ectopic expression activates reporter in HFF-1; indirect; protein in cells; protein details: expression plasmid
[2] = system: c-MYC; settings: overexpression had no effect in HFF-1; indirect; protein in cells; protein details: expression plasmid
[3] = system: KLF4; settings: ectopic expression activates reporter in HFF-1; indirect; protein in cells; protein details: expression plasmid
[4] = target: NANOG, in cells (UniProt Q9H9S0); settings: ectopic expression activates reporter in HFF-1; indirect; synergy with LBP9; protein in cells; protein details: expression plasmid
[5] = target: SOX2 (UniProt P48431); settings: overexpression had no effect in HFF-1; indirect; protein in cells; protein details: expression plasmid
[6] = target: T1, LBP9 (TFCP2L1), in cells (Homo sapiens) (UniProt Q9NZI6); settings: protein in cells
T1 sequence (looked up, limits assumed): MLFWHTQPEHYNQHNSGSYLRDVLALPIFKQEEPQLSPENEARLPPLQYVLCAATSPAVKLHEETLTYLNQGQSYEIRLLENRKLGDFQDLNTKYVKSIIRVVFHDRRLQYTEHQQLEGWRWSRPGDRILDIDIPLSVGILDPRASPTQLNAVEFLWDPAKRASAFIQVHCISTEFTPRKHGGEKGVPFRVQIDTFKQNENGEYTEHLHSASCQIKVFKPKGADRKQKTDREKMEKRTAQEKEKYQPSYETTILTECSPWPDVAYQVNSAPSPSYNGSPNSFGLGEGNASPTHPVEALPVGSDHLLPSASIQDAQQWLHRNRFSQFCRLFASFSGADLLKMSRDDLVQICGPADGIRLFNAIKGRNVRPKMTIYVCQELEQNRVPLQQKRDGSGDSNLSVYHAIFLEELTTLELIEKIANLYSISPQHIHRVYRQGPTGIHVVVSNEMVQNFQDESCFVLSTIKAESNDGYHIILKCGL

## ATGCTGCGAGATGGGAAACACATACAAAATCTTCAACCTTCAGTAAGTAAAAACCTTCTCTATTAAAATCTGCAAAGTGTATTCATTTGTTCTAAAATTATTTGCTAAGTGCCCACACAGCACTAGGAATGAAACATAAAAAAATCTCTTCCCTCACTTAGCTTCGTATTCTCTTTGGGAATGTCAGGCCTCTGAGCCCAAGCCAAGCCATCGCATCCCCTATGACATGCACGTACACGCCCAGATGGCCTGAAGTAACTGAAGAATCACAAAAGAAGTGAATATGCCCTGCCCCACCTTAACTGATGACATTCCACCACAAAAGAAGTGTAAATGGCCAGTCCTTGCCTTAACTGATGACATTACCTTGTGAAAGTCCTTTTCCTGGCTCATCCTGGCTCAAAAAGCACCCCCACTGAGCACCTTGCGACCCCCCGCTCCTACCCGCCAGAGAACAAACCCCCTTTGACTGTAATTTTCCTTTACCTAACCAAATCCTATAAAACGGCCCCACCCTTATCTCCCTTCGCTGACTCTCTTTTCGGACTCAGCCCGCCTGCACCCAGGTGAAATAAACAGCCTCGTTGCTCACACAAAGCCTGTTTGGTGGTCTCTTCACACGGACGCGCATGAAATTTGGTGCCGTGACTCGGATCGGGGGACCTCCCTTGGGAGATCAATCCCCTGTCCTCCTGCTCTTTGCTCCGTGAGAAAGATCCACCTACGACCTCAGGTCCTCAGACCAACCAGCCCAAGAAACATCTCACCAATTTCAAATCCGGTAAGCGGCCTCTTTTTACTCTGTTCTCCAACCTCCCTCACTATCCCTCAACCTCTTTCTCCTTTCAATCTTGGCGCCACACTTCAATCTCTCCCTTCTCTTAATTTCAATTCCTTTCATTCTCTGGTAGAGACAAAAGAGACATGTTTTATCCGTGAACCCAAAACTCCGGCGCCGGTCACGGACTGGGAAGGCAGTCTTCCCTTGGTGTTTAATCATTGCAGGGACGCCTCTCTGATTTCACGTTTCAGACCACGCAGGGATGCCTGCCTTGGTCCTTCACCCTTAGCGGCAAGTCCCGCTTTCCTGGGGCAGGGGCAAGTACCCCTCAACCCCTTCTCCTTCACCCTTAGCGGCAAGTCCCGCTTTTCTGGGGCAGGGGCAAGTACCCCTCAACCCCTTCTCCTTCACCC (double strand) [LTR7#2 (ESRG-LTR7 plus HERVH-int reporter fragment)]
[1]
  activity on this sequence: active
[2]
  activity on this sequence: not active
[3]
  activity on this sequence: active
[4]
  activity on this sequence: active
[5]
  activity on this sequence: not active
[6]; ectopic expression activates reporter in HFF-1, indirect
  activity on this sequence: active

## TGCTAAGTGCCCACACAGCACTAGGAATGAAACATAAAAAAATCTCTTCCCTCACTTAGCTTCGTATTCTCTTTGGGAATGTCAGGCCTCTGAGCCCAAGCCAAGCCATCGCATCCCCTATGACATGCACGTACACGCCCAGATGGCCTGAAGTAACTGAAGAATCACAAAAGAAGTGAATATGCCCTGCCCCACCTTAACTGATGACATTCCACCACAAAAGAAGTGTAAATGGCCAGTCCTTGCCTTAACTGATGACATTACCTTGTGAAAGTCCTTTTCCTGGCTCATCCTGGCTCAAAAAGCACCCCCACTGAGCACCTTGCGACCCCCCGCTCCTACCCGCCAGAGAACAAACCCCCTTTGACTGTAATTTTCCTTTACCTAACCAAATCCTATAAAACGGCCCCACCCTTATCTCCCTTCGCTGACTCTCTTTTCGGACTCAGCCCGCCTGCACCCAGGTGAAATAAACAGCCTCGTTGCTCACACAAAGCCTGTTTGGTGGTCTCTTCACACGGACGCGCATGAAATTTGGTGCCGTGACTCGGATCGGGGGACCTCCC (double strand) [LTR7#1 (ESRG-LTR7 reporter fragment)]
[6]; GFP reporter in hiPSCs, signal clearly detected
  activity on this sequence: active
